Measured values: the supplement of paper PMC10735217
Counter-ions that a name gives are not always drawn. The list shows a part of the results. Single values are uncertain here, since repeats match poorly.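 In a drug-repurposing library screen, luminescence reads luciferase driven by eight TEAD-binding elements, stably integrated into human kidney-derived cells. Compounds scoring over five robust Z scores above the plate mean are called hits.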

System: HEK293A TEAD-LUC reporter
Assay: TEAD-luciferase reporter activity (YAP activation), robust Z score vs plate; higher = stronger YAP/TEAD activation
Conditions: 24 h

Row | SMILES | TEAD-luciferase reporter activity (compound concentration: 200 nM) | TEAD-luciferase reporter activity (compound concentration: 2 uM) | TEAD-luciferase reporter activity (compound concentration: 10 uM)
1 | CC(C)(C)c1cc(NC(=O)NCc2ccccc2Sc2ccc3nnc(-c4ccccc4SCCO)n3c2)n(-c2ccc(O)c(Cl)c2)n1 | inactive: -1.81 | inactive: -1.26 | inactive: 0.179
2 | N#Cc1ccc(Cn2cncc2CN2CCN(c3cccc(Cl)c3)C(=O)C2)cc1 | inactive: -2.31 | inactive: -1.48 | inactive: -0.0456
3 | Cc1cc(Cn2nnc3c(-c4ccco4)nc(N)nc32)ccc1N [Vipadenant] | inactive: -0.0334 | inactive: -0.579 | inactive: 0.713
4 | C[C@]12C=CC(=O)C=C1CC[C@@H]1[C@@H]2[C@@H](O)C[C@@]2(C)[C@H]1CC[C@]2(O)C(=O)COP(=O)([O-])[O-] [prednisolone sodium phosphate] | inactive: -1.55 | inactive: 0.144 | inactive: 3.01
5 | CNCc1ccc(NC(=O)c2c[nH]c3c2C(=O)CCC3)cc1 | inactive: 1.06 | inactive: -1.42 | inactive: -0.855
6 | CN(C)CCC(c1ccc(Br)cc1)c1ccccn1 (stereo not given) [Brompheniramine maleate] |  | inactive: 0.335 | 
7 | CN(C)CCC(c1ccc(Br)cc1)c1ccccn1 (stereo not given) | inactive: -2.12 |  | inactive: -0.0321
8 | CC(C)(C)OC(=O)N[C@@H](Cc1ccccc1)[C@H](O)CNC[C@@H](O)[C@H](Cc1ccc(OCC(=O)N2CCOCC2)cc1)NC(=O)OC(C)(C)C | active: 5.9 | inactive: 0.389 | inactive: 0.127
9 | CC(CC(c1ccccc1)c1ccccc1)N1CCCC1 (stereo not given) | inactive: 0.818 | inactive: -0.897 | inactive: -1.01
10 | Cc1cn(C2CC(N=[N+]=[N-])C(CO)O2)c(=O)nc1N (stereo not given) | inactive: -0.41 | inactive: 2.42 | inactive: -0.225
11 | COc1cc(C(=O)N2CC(F)(F)C[C@H]2C(=O)N2CCC[C@H]2C#N)cc(OC)c1OCc1ccccc1 | inactive: 0.245 |  | inactive: -0.236
12 | CC[N+](C)(CC)CCSC1=Nc2ccccc2N=C(c2ccc(Sc3ccccc3)cc2)C1 [Tibezonium iodide] | inactive: 2.14 | inactive: 0.439 | inactive: -0.413
13 | CNCCCCOc1ccccc1Cc1ccccc1 [Bifemelane] | inactive: -1.91 |  | inactive: -1.2
14 | CNCCCCOc1ccccc1Cc1ccccc1 [bifemelane] |  | inactive: -1.15 | 
15 | CCOC(=O)CCC(N)=O | inactive: -1.98 | inactive: -2.14 | inactive: -0.185
16 | O=S(=O)(O)c1ccc2ccccc2c1 | inactive: 0.799 | inactive: -0.421 | inactive: 0.304
17 | CN(c1ccc(N2C[C@H](CN)OC2=O)cc1F)S(C)(=O)=O | inactive: -0.955 | inactive: 0.126 | inactive: -0.817
18 | CN(Cc1ccc(C(C)(C)C)cc1)Cc1cccc2ccccc12 [butenafine] |  | inactive: 0.346 | 
19 | CN(Cc1ccc(C(C)(C)C)cc1)Cc1cccc2ccccc12 [Butenafine] | inactive: 3.11 |  | inactive: 1.71
20 | CCN(CC)CCNC(=O)c1cc(Cl)c(N)cc1OC(C)C(C)=O (stereo not given) [Batanopride hydrochloride] | inactive: -1.59 | inactive: 1.29 | inactive: -0.41
21 | CCCCN(CCCC)C(C(N)=O)c1ccc(OC)cc1 (stereo not given) [Ambucetamide] | inactive: -0.582 |  | inactive: 4.4
22 | O=C(O)CCC(=O)O [succinic acid] |  | inactive: -2.09 | 
23 | O=C(O)CCC(=O)O [succinic acid, Vecta] | inactive: 1.99 |  | inactive: -0.902
24 | CCN(CC)CCNC(=O)c1ccccc1O | inactive: -1.83 | inactive: -1.22 | inactive: -1.45
25 | CCOc1ccc2cc(C(=O)Nc3nc4ccccc4[nH]3)[nH]c2c1 | inactive: -1.18 | inactive: 0.607 | inactive: 0.871
26 | C[N+]1(C)[C@@H]2C[C@H](OC(=O)C(O)(c3cccs3)c3cccs3)C[C@H]1[C@H]1O[C@H]12 [Tiotropium bromide] | inactive: -0.481 | inactive: -1.04 | inactive: -1.27
27 | N=C(N)NC(CS)C(=O)O (stereo not given) | inactive: 1.76 | inactive: -0.446 | inactive: 0.847
28 | O=C1NCc2ccccc2CC12CCCCN2Cc1cccc(O)c1 (stereo not given) | inactive: -0.215 |  | inactive: 2.96
29 | CC1OC(n2cc(F)c(=O)[nH]c2=O)C(O)C1O (stereo not given) [doxifluridine] | inactive: 0.608 | inactive: -0.715 | inactive: 1.98
30 | CS(=O)(=O)c1ccc(Cl)cc1Cn1cc(Cl)cc(C(N)=O)c1=N | inactive: -0.644 | inactive: 0.421 | inactive: 1.29

Fetched one by one from the list above, 2 records:
Row | SMILES | TEAD-luciferase reporter activity (compound concentration: 200 nM) | TEAD-luciferase reporter activity (compound concentration: 2 uM) | TEAD-luciferase reporter activity (compound concentration: 10 uM)
12 | CC[N+](C)(CC)CCSC1=Nc2ccccc2N=C(c2ccc(Sc3ccccc3)cc2)C1 [Tibezonium iodide] | inactive: 2.14 | inactive: 0.439 | inactive: -0.413
25 | CCOc1ccc2cc(C(=O)Nc3nc4ccccc4[nH]3)[nH]c2c1 | inactive: -1.18 | inactive: 0.607 | inactive: 0.871
